Laboratory results published in paper PMC10149416.
These are yes or no findings as the source states them, for the method shown. Binding seen in cells or lysates may run through a third protein. Some binding calls cover weakened binding; strength is not graded here. For part of these data: Sequences can lack the tags named with a protein. One block for each binder: values may come before it.

Experiments:
[1] = molecular target: T1, Flag-tagged UTP11 (human) (UniProt Q9Y3A2); assay: co-IP; cells transfected with the indicated plasmids (Flag-UTP11, Myc-MPP10); reciprocal co-IP followed by immunoblot
T1 sequence: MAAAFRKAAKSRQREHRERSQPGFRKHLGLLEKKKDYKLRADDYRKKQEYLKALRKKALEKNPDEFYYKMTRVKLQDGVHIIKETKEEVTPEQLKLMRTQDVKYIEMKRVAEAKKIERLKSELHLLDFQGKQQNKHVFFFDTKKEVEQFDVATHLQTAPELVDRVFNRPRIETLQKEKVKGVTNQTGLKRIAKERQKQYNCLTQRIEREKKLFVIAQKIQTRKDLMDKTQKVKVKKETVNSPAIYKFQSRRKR

[2] = molecular target: T2, UTP11 (endogenous) (human (endogenous in HCT116)) (UniProt Q9Y3A2); assay: co-IP; endogenous proteins; HCT116 p53+/+ cells treated with MG132 for 6 h; co-IP followed by immunoblot
T2 sequence: T1 sequence

Myc-tagged MPP10 (human) = molecular target: T3, Myc-tagged MPP10 (human) (UniProt O00566); assay: co-IP; cells transfected with the indicated plasmids (Flag-UTP11, Myc-MPP10); reciprocal co-IP followed by immunoblot
T3 sequence: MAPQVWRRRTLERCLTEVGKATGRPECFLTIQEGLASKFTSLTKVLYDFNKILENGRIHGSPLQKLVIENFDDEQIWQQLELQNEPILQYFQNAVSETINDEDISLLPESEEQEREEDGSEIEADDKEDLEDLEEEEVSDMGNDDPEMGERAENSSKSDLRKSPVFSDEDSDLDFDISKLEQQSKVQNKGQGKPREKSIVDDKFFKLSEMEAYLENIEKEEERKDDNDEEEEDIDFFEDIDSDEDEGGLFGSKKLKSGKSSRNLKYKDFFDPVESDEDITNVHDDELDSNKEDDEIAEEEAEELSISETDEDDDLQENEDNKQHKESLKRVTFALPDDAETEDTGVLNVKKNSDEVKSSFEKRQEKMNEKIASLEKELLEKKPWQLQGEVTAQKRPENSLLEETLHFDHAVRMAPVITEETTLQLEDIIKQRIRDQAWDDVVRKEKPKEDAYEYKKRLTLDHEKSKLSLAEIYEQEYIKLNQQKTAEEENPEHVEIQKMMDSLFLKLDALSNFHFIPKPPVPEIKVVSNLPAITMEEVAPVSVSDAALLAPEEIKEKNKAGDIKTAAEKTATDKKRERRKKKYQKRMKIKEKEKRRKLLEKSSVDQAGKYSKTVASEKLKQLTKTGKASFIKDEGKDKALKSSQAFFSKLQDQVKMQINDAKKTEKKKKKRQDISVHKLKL

- binding [1]: binds
B1: Myc-tagged MPP10 (protein, UniProt O00566 1-681)
chain: T3 sequence

- binding [2]: binds
B2: MPP10 (endogenous) (protein, UniProt O00566 1-681)
chain: T3 sequence

- binding (Myc-tagged MPP10 (human)): binds
B3: Flag-tagged UTP11 (protein, UniProt Q9Y3A2 1-253)
chain: T1 sequence
